The text below walks through data of PubChem BioAssay AID2685 (National Center for Advancing Translational Sciences (NCATS), 2010).

Structures are written as SMILES. Values joined by “and” are separate entries in the source; they are usually repeats but may differ in a detail not shown here. Identical values can stand only once. Some of the results follow. The main result of the screen is listed elsewhere. These columns were measured beside it and carry no call. Compounds called inactive in the main read-out are mostly missing here. Words in brackets tell the shape of the fitted curve; partial curves, single points and poor fits give uncertain potencies.

This test can be described thus: qHTS Assay for Lipid Storage Modulators in Drosophila S3 Cells.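 As to cell number change: cells counted by Cell Tracker Red CMTPX staining in the red channel.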 Particulars: BODIPY lipid droplet fluorescence, 18-24 h; for cell number change: measured here: cell count max response, cells fed with added oleic acid. An outline of the steps:
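Drosophila S3 cells loaded with oleic acid (400 uM, as added) and compounds at several concentrations; lipid droplets imaged by 488-nm laser-scanning cytometry, 500–530 nm intensity and object ratio to cell channel. Percent activity normalized to 20 uM Triacsin C.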

Where [1] appears, read: measured here: lipid fluorescence (Fed channel) AC50, cells fed with added oleic acid.
Where [2] appears, read: measured here: cell number channel AC50, cells fed with added oleic acid.

In the case of `Nc1ccccc1C(=O)OCCOc1ccccc1`, the cell number change was -18.7%. Further, the AC50 under setting [1] was 29.1 µM [rising, single point].
With `COC(=O)C1=C(c2ccc(Cl)c(C(F)(F)F)c2)C[C@@H]2CC[C@H]1N2C(=O)N1CCCC1`, the cell number change is -18.2%. In addition, the AC50 under setting [1] was 25.9 µM [falling, single point].
On to `CC(NCC#Cc1ccccc1)C(O)c1ccccc1` (stereo not drawn), for which the cell number change is -6.89%. For the same compound, under setting [2], the AC50 was 0.461 µM [falling, full curve, poor fit].
As for `Clc1ccc(C(Cn2ccnc2)OCc2csc3c(Cl)cccc23)c(Cl)c1` (stereo not drawn), the cell number change is -76.9%.
With `Cc1ccc(/C=C2/Sc3ccc(C(=O)N4CCC5(CC4)OCCO5)cc3NC2=O)cc1`, the cell number change was -49.1%. Besides, the AC50 under setting [2] is 13 µM [falling, partial curve].
In the case of `Fc1ccc(CNCCc2ccc3c(c2)OCO3)cc1`, the cell number change was determined as 12.7%. Besides, under setting [1], the AC50 was 18.4 µM [rising, single point].
Consider `CCP(=S)(CC)c1ccc(N(C)C)cc1`, for which the cell number change was determined as 19.8%. Besides, the AC50 under setting [1] is 6.51 µM [rising, partial curve, poor fit].
With `Cc1cccc(C#N)c1`, the cell number change is 5.65%. Further, under setting [1], the AC50 was 0.0231 µM [rising, full curve, poor fit].
With `O=C1NC(=O)N(CCc2ccc(F)cc2)C(=O)/C1=C/C=C/c1ccccc1`, the cell number change was -4.48%. Further, the AC50 under setting [2] is 3.26 µM [falling, single point]. Under setting [1], the AC50 is 6.51 µM [falling, single point].
As for `CCOc1ccc(-c2c(C)n(-c3ccc(OCC)cc3)c3[n+]2CCCCC3)cc1`, the cell number change was -69.5%. Also, the AC50 under setting [2] was 5.17 µM [falling, partial curve].
With `CC1CCCCN1C(=O)Cn1cc(C=C2C(=O)N(C)C(=O)N(C)C2=O)c2ccccc21` (stereo not drawn), the cell number change was 3.41%. Besides, the AC50 under setting [1] was 29.1 µM [falling, single point].
For `CCC(=NCCC(c1ccccc1)c1ccccc1)c1c(O)[nH]c(=O)[nH]c1=O`, the cell number change is -50%. Further, the AC50 under setting [2] is 29.1 µM [falling, single point]. Further, the AC50 under setting [1] was 20.6 µM [rising, partial curve].
Take `O=C1NC(=O)N(c2cccc(Br)c2)C(=O)/C1=C/c1ccsc1`: the cell number change was 3.68%. Also, the AC50 under setting [2] was 6.51 µM [falling, single point]. For the same compound, under setting [1], the AC50 is 4.61 µM [falling, single point].
For `O=C(C(=O)N1CCC2(CC1)OCCO2)c1c[nH]c2ccccc12`, the cell number change is -31.8%. Also, the AC50 under setting [2] was 18.4 µM [falling, single point].
Take `O=[N+]([O-])c1ccc(NCc2ccc(Cl)cc2)c2ccncc12`: the cell number change is -0.704%.
Take `COc1ccc(-n2cnc3cc(C(=O)N4CCC5(CC4)OCCO5)ccc32)cc1`: the cell number change was -0.121%. Further, the AC50 under setting [2] is 6.51 µM [falling, single point]. Also, the AC50 under setting [1] is 7.31 µM [falling, partial curve, poor fit].
Consider `O=C1NC(=O)N(Cc2ccc(F)cc2)C(=O)/C1=C\C=C\c1ccco1`, for which the cell number change was -51.4%. For the same compound, under setting [2], the AC50 is 1.64 µM [falling, partial curve, poor fit]. Further, the AC50 under setting [1] is 1.46 µM [falling, full curve].
Regarding `CCSc1cc(C2C(C#N)=C(N)Oc3n[nH]c(C)c32)c(C)o1` (stereo not drawn), the AC50 under setting [2] is 6.51 µM [rising, single point] and the AC50 under setting [1] was 5.8 µM [rising, single point].
In the case of `COP(=O)(OC)C(NC(=O)C(C)(C)C)=C(Cl)Cl`, the cell number change is -19.1%. Also, under setting [1], the AC50 is 0.0291 µM [falling, full curve, poor fit].
As for `O=C(C1CCC(=O)N1Cc1ccccc1Cl)N1CCC2(CC1)OCCO2` (stereo not drawn), the cell number change was -28.8%. The AC50 under setting [1] was 29.1 µM [falling, single point].
Consider `O=C(N/N=C/c1c(O)n(-c2cccc3ccccc23)c(=O)[nH]c1=O)c1ccncc1`, for which the cell number change was 15.4%. Under setting [2], the AC50 was 1.84 µM [rising, single point].
Consider `COc1ccc2c(C)c(CC(=O)N3C[C@H]4C[C@@H](C3)c3cccc(=O)n3C4)c(=O)oc2c1C`, for which the cell number change is 5.5%. The AC50 under setting [1] was 29.1 µM [falling, single point].
As to `CCCCc1ccc(NC2=NCCCS2)cc1`, the cell number change worked out at 6.94%. In addition, under setting [1], the AC50 was 6.51 µM [rising, single point].
With `COC(=O)C1=C(c2cccc(OCc3ccccc3)c2)C[C@@H]2CC[C@H]1N2C(=O)NCc1ccccc1C(F)(F)F`, the cell number change was -11.3%.
As for `O=C1COc2ccc(C(=O)COC(=O)Cc3ccccc3)cc2N1`, the cell number change was determined as 25%. Further, the AC50 under setting [2] was 1.3 µM [rising, partial curve].
For the compound `COc1cccc(NC(=O)N2CCC3(CC2)OCCO3)c1`, the cell number change was -20.7%.
As for `CCCN1CC[C@@H]2c3cc(O)ccc3CC[C@@H]21`, the AC50 under setting [1] was 7.31 µM [falling, partial curve].
Take `Cc1cc(/C=C2\C(=O)NC(=O)N(c3ccccc3F)C2=O)c(C)n1-c1cc(C(=O)O)cc(C(=O)O)c1`: the cell number change is -1.77%.
On to `CN1CCN(C(=O)COc2ccc(C(C)(C)C)cc2Br)CC1`, for which the cell number change is -4.88%. For the same compound, the AC50 under setting [1] is 0.0116 µM [falling, full curve, poor fit].
As for `Cc1cc2c(C(C)C)c(O)c(O)c(C=O)c2c(O)c1-c1c(C)cc2c(C(C)C)c(O)c(O)c(C=O)c2c1O`, the cell number change was -86.9% and -88.1%. The AC50 under setting [2] is 9.2 µM [falling, partial curve] and 16.4 µM [falling, partial curve]. The AC50 under setting [1] was 9.2 µM [falling, partial curve] and 16.4 µM [falling, partial curve].
For `Brc1ccc2c(c1)C(OC1CN3CCC1CC3)c1ccccc1CS2` (stereo not drawn), the cell number change is 32.7%. Under setting [2], the AC50 was 29.1 µM [rising, single point]. Further, the AC50 under setting [1] is 29.1 µM [rising, single point].
Regarding `Cc1cc(Cl)ccc1OC(C)C(=O)O` (stereo not drawn), the cell number change is -14.7%. Also, the AC50 under setting [1] was 0.461 µM [falling, full curve, poor fit].
As for `CC(C)CCNC(=O)CN1C(=O)CN=C(c2ccccc2)c2ccccc21`, the cell number change turned out to be 14%.
In the case of `CCC1(c2ccccc2)C(=O)N(C)C(=O)N(C)C1=O`, the cell number change was -11.3%. Moreover, the AC50 under setting [2] is 0.00461 µM [falling, full curve, poor fit].
In the case of `CCC1=Nc2cc(C(=O)N3CCC4(CC3)OCCO4)ccc2Sc2ccccc21`, the cell number change was found to be 13%. Besides, under setting [1], the AC50 was 3.26 µM [falling, single point].
Turning to `O=c1[nH]c2ccccc2n1C1CCN(CCCC(c2ccc(F)cc2)c2ccc(F)cc2)CC1`, the cell number change is -44.7%. Also, the AC50 under setting [2] is 25.9 µM [falling, partial curve]. The AC50 under setting [1] is 29.1 µM [falling, partial curve].
